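Selective DUX4 reporter inhibition in doxycycline-induced 293T-iDUX4 cells, scored as Gaussia percent activity minus Italica percent activity, after a 24-hour treatment.
The test concentration is not given here.
Percent difference between the Gaussia and Italica channels; more negative values mean more selective suppression of the DUX4 reporter, and higher values mean less activity.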

Values are in %.
How 0% and 100% were set is not given here.
Common to all entries: measured here: selective DUX4 reporter inhibition.
This is a side read-out of the assay, for part of the compounds, not drawn at random.

| # | compound | Gaussia minus Italica difference (%) |
|---|---|---|
| 1 | `CCCNC(=O)N1CC2(CCN(C(=O)Nc3cccc(F)c3)CC2)c2c(n(C)c3cc(OC)ccc23)[C@@H]1CO` | -4.558 |
| 2 | `O=S(=O)(c1ccccc1)N1CCCCN2[C@@H](CO)[C@@H](c3ccc(C#Cc4cccnc4)cc3)[C@@H]2C1` | -18.33 |
| 3 | `O=C(c1ccccc1F)N1CC(=O)N2[C@H](C1)[C@@H](c1ccc(-c3ccc(F)cc3)cc1)[C@@H]2CO` | 2.347 |
| 4 | `N#C[C@H]1[C@H](c2ccccc2C2=CCCCC2)[C@H](CO)N1C(=O)c1cccc(F)c1` | -15.56 |
| 5 | `COc1ccc2c3c([nH]c2c1)[C@H](CO)N(C(=O)c1ccc(F)cc1)CC31CCN(C(=O)Nc2ccc(F)cc2)CC1` | -18.31 |
| 6 | `COc1ccc(C#Cc2ccc([C@@H]3[C@@H](CO)N4CCCCN(C(=O)Cc5cccnc5)C[C@H]34)cc2)cc1` | 9.685 |
| 7 | `O=S(=O)(c1cccs1)N1CCCCN2[C@H](CO)[C@H](c3ccc(/C=C/c4ccccc4)cc3)[C@@H]2C1` | -2.411 |
| 8 | `Cc1ccccc1S(=O)(=O)N1CC[C@@H]2[C@H](CO)Nc3ccc(-c4cccc(F)c4)cc3[C@@H]21` | -10.61 |
| 9 | `COc1ccc(-c2ccc([C@H]3[C@@H](CO)N4CCCCN(C(=O)c5ccc(F)cc5)C[C@H]34)cc2)cc1` | 9.871 |
| 10 | `C/C=C/c1ccccc1[C@H]1[C@@H](C#N)N(S(=O)(=O)c2cccc(F)c2)[C@H]1CO` | -17.91 |
| 11 | `O=C(Nc1ccc(C(F)(F)F)cc1)Nc1ccc2c(c1)[C@H]1C[C@@H](CC(=O)N3CCc4ccccc4C3)O[C@@H](CO)[C@H]1O2` | 20.48 |
| 12 | `CCCNC(=O)N1[C@H](C#N)[C@@H](c2ccccc2-c2ccc(C)cc2)[C@@H]1CO` | 0.4644 |
| 13 | `O=C(C1CCOCC1)N1CC(=O)N2[C@H](C1)[C@@H](c1ccc(C#Cc3cccc(F)c3)cc1)[C@@H]2CO` | -3.009 |
| 14 | `COc1cc(CN2C[C@@H]3N[C@H](C2)C3c2ccc(-c3cccc(OC)c3)cc2)cc(OC)c1` (stereo partly drawn) | -17.03 |
| 15 | `COC(=O)[C@H]1[C@H](CO)[C@H]2Cn3c(ccc(-c4ccccc4OC)c3=O)[C@H]2N1CC1CCCCC1` | -10.58 |
| 16 | `COc1ccc2c3c([nH]c2c1)[C@H](CO)N(Cc1cc(F)ccc1F)CC31CN(C)C1` | 3.258 |
| 17 | `CN(C)C(=O)c1cccc(-c2ccc3c(c2)[C@@H]2[C@@H](CCN2C(=O)c2cccnc2)[C@@H](CO)N3)c1` | -13.26 |
| 18 | `COc1ccccc1-c1ccc([C@H]2[C@H](CO)N3CCCCN(C(=O)c4cccnc4)C[C@@H]23)cc1` | -3.402 |
| 19 | `O=C(C[C@H]1C=C[C@H](NC(=O)C2CCOCC2)[C@H](CO)O1)Nc1ccc(-c2ccccc2)cc1` | -11.45 |
| 20 | `COc1ccc2c3c(n(C)c2c1)[C@@H](CO)N(C(=O)Nc1ccccc1F)CC31CN(C(=O)c2ccccc2F)C1` | -7.7 |
| 21 | `O=C(C[C@H]1CC[C@@H]2[C@H](COC[C@H](O)CN2Cc2cc(F)ccc2F)O1)N[C@H]1CCN(Cc2ccccc2)C1` | -16.18 |
| 22 | `COc1cccc(CN2[C@H](CO)[C@H](c3ccccc3)C23CN(C(=O)C2CCCCC2)C3)c1` | -10.27 |
| 23 | `CO[C@H]1CN(C)C(=O)c2ccc(NC(=O)c3nc4ccccc4s3)cc2OC[C@H](C)N(Cc2cccnc2)C[C@@H]1C` | -14.69 |
| 24 | `O=C(C[C@H]1CC[C@@H]2[C@H](COC[C@H](O)CN2Cc2cc(F)ccc2F)O1)NCc1ccc(Oc2ccccc2)cc1` | 2.726 |
| 25 | `O=C(Nc1ccc2c(c1)OCO2)N1C[C@@H]2N[C@H](C1)C2c1ccc(-c2ccccc2)cc1` (stereo partly drawn) | -7.278 |
| 26 | `O=C(Cc1ccncc1)N1CC[C@@H]2[C@H]1c1cc(-c3cccc(F)c3)ccc1N[C@@H]2CO` | -12.84 |
| 27 | `COc1cc(CN2CC3(CN(S(=O)(=O)c4cccs4)C3)c3c(n(C)c4cc(OC)ccc34)[C@H]2CO)cc(OC)c1` | -5.726 |
| 28 | `O=C(C[C@@H]1C[C@@H]2c3cc(NC(=O)c4cccnc4)ccc3O[C@@H]2[C@@H](CO)O1)NCc1ccc(Oc2ccccc2)cc1` | -8.676 |
| 29 | `Cc1ccccc1-c1ccc(C2[C@@H]3CN(S(=O)(=O)c4cn(C)cn4)C[C@H]2N3)cc1` (stereo partly drawn) | -13.81 |
| 30 | `O=C(C[C@@H]1CC[C@@H]2[C@H](COC[C@@H](O)CN2C(=O)Nc2ccc(Cl)cc2)O1)NC1Cc2ccccc2C1` | -14.89 |
| 31 | `COc1ccc2c3c(n(C)c2c1)[C@H](CO)N(CC1CC1)CC31CCN(C(=O)c2ccccc2)CC1` | -11.15 |
| 32 | `CN1C(=O)c2cc(NC(=O)c3ccc(C(F)(F)F)cc3)ccc2OC[C@H]2O[C@@H](CC(=O)NC3Cc4ccccc4C3)CC[C@H]21` | 0.2605 |
| 33 | `C[C@H](NC(=O)C[C@H]1CC[C@@H]2[C@H](COC[C@H](O)CN2Cc2ccc(C(F)(F)F)cc2)O1)c1ccccc1` | -13.41 |
| 34 | `COc1ccc(NC(=O)N2CC(=O)N3[C@H](CO)[C@H](c4ccc(/C=C/c5ccccc5)cc4)[C@@H]3C2)cc1` | -2.588 |
| 35 | `CCCC#Cc1ccc([C@@H]2[C@@H](CO)N3C(=O)CN(S(=O)(=O)Cc4ccccc4)C[C@@H]23)cc1` | -7.765 |
| 36 | `CO[C@@H]1CN(C)C(=O)c2cc(NC(=O)Nc3ccc(Cl)c(Cl)c3)ccc2OC[C@H](C)NC[C@@H]1C` | -3.949 |
| 37 | `CCCC#Cc1ccc([C@@H]2[C@H]3CN(S(=O)(=O)c4ccccc4C)CC(=O)N3[C@H]2CO)cc1` | 4.289 |
| 38 | `O=C(NC1CCCCC1)N1C[C@@H]2N[C@H](C1)C2c1ccc(-c2cccc(F)c2)cc1` (stereo partly drawn) | 5.258 |
| 39 | `COc1ccccc1CNC(=O)C[C@H]1CC[C@@H]2[C@H](COC[C@@H](O)CN2Cc2cccc(-c3ccncc3)c2)O1` | 11.1 |
| 40 | `COc1ccccc1CNC(=O)C[C@H]1CC[C@H]2[C@@H](COC[C@H](O)CN2Cc2cccc(-c3ccncc3)c2)O1` | -7.157 |
| 41 | `COc1ccc(-c2ccc(C3[C@@H]4CN(Cc5cc(OC)cc(OC)c5)C[C@H]3N4)cc2)cc1` (stereo partly drawn) | -19.43 |
| 42 | `N#Cc1cccc(-c2ccc3c(c2)[C@@H]2[C@@H](CCN2C(=O)c2ccc4c(c2)OCO4)[C@@H](CO)N3)c1` | 4.678 |
| 43 | `N#C[C@H]1[C@H](c2ccc(-c3ccc(F)cc3)cc2)[C@H](CO)N1C(=O)Cc1ccccc1` | -0.9861 |
| 44 | `COc1ccccc1CNC(=O)C[C@H]1C[C@H]2c3cc(NS(=O)(=O)c4ccc(F)cc4)ccc3O[C@H]2[C@H](CO)O1` | -9.051 |
| 45 | `CO[C@@H]1CN(C)C(=O)c2cc(NC(=O)c3ccc4c(c3)OCO4)ccc2OC[C@@H](C)N(CCC(F)(F)F)C[C@H]1C` | -14.3 |
| 46 | `COc1cccc(-c2ccc3c(c2)[C@@H]2[C@@H](CCN2S(=O)(=O)c2ccccc2OC)[C@H](CO)N3C)c1` | 28.99 |
| 47 | `COc1ccccc1S(=O)(=O)N1CC[C@@H]2[C@H](CO)N(C)c3ccc(C#Cc4cccc(F)c4)cc3[C@@H]21` | -11.42 |
| 48 | `COc1cccc(CNC(=O)[C@@H]2N[C@@H]3c4ccc(/C=C/c5ccccc5)c(=O)n4C[C@@H]3[C@H]2CO)c1` | -2.741 |
| 49 | `COc1ccc(C#Cc2ccc([C@@H]3[C@@H](CO)N4CCCCN(C(=O)Nc5ccccc5F)C[C@@H]34)cc2)cc1` | -15.93 |
| 50 | `COc1cccc(-c2ccc3c(c2)[C@@H]2[C@@H](CCN2C(=O)c2ccc(F)cc2)[C@@H](CO)N3)c1` | 24.51 |
| 51 | `O=C(c1ccccc1F)N1CC(=O)N2[C@H](CO)[C@@H](c3ccc(-c4ccc(F)cc4)cc3)[C@H]2C1` | -1.105 |
| 52 | `O=C(Nc1ccccc1)N1CCCCN2[C@H](C1)[C@@H](c1ccc(C3=CCCCC3)cc1)[C@@H]2CO` | -9.919 |
| 53 | `O=C(C1CCOCC1)N1[C@@H](CO)[C@@H](c2ccccc2)C12CN(Cc1cccc(Cl)c1)C2` | -15.37 |
| 54 | `O=C(Nc1ccc(C(F)(F)F)cc1)Nc1ccc2c(c1)[C@H]1C[C@H](CC(=O)N3CCc4ccccc4C3)O[C@H](CO)[C@H]1O2` | 2.77 |
| 55 | `CN1c2ccc(-c3cccc(C#N)c3)cc2[C@@H]2[C@@H](CCN2S(=O)(=O)c2ccccc2F)[C@H]1CO` | -16.55 |
| 56 | `COCC(=O)N1CC2(CN(Cc3ccccc3Cl)C2)c2c([nH]c3cc(OC)ccc23)[C@@H]1CO` | -12.43 |
| 57 | `N#Cc1cccc(-c2ccc(C3[C@@H]4CN(C(=O)Nc5ccc(C(F)(F)F)cc5)C[C@H]3N4)cc2)c1` (stereo partly drawn) | -13.05 |
| 58 | `CCCNC(=O)N1CC2(CCN(Cc3cccc(OC)c3)CC2)c2c(n(C)c3cc(OC)ccc23)[C@H]1CO` | 28.55 |
| 59 | `O=C(C[C@H]1CC[C@H]2[C@@H](COC[C@H](O)CN2Cc2ccc(Cl)cc2)O1)Nc1nccs1` | 7.192 |
| 60 | `COc1ccc2c3c([nH]c2c1)[C@H](CO)N(Cc1ccccc1F)CC31CCN(C)CC1` | -18.13 |
| 61 | `C[C@H]1CN([C@@H](C)CO)C(=O)CCCn2cc(nn2)CO[C@H]1CN(C)Cc1ccccc1C(F)(F)F` | -5.142 |
| 62 | `CO[C@@H]1CN(C)C(=O)c2cc(NC(=O)C3CC3)ccc2OC[C@H](C)N(Cc2cc(F)ccc2F)C[C@H]1C` | -16.3 |

For reference, 5 entries once more:

- O=C(Nc1ccc(C(F)(F)F)cc1)Nc1ccc2c(c1)[C@H]1C[C@H](CC(=O)N3CCc4ccccc4C3)O[C@H](CO)[C@H]1O2 : Gaussia minus Italica difference 2.77%
- O=C(Nc1ccc(C(F)(F)F)cc1)Nc1ccc2c(c1)[C@H]1C[C@@H](CC(=O)N3CCc4ccccc4C3)O[C@@H](CO)[C@H]1O2 : Gaussia minus Italica difference 20.48%
- CN1c2ccc(-c3cccc(C#N)c3)cc2[C@@H]2[C@@H](CCN2S(=O)(=O)c2ccccc2F)[C@H]1CO : Gaussia minus Italica difference -16.55%
- COc1ccccc1CNC(=O)C[C@H]1CC[C@H]2[C@@H](COC[C@H](O)CN2Cc2cccc(-c3ccncc3)c2)O1 : Gaussia minus Italica difference -7.157%
- CO[C@@H]1CN(C)C(=O)c2cc(NC(=O)Nc3ccc(Cl)c(Cl)c3)ccc2OC[C@H](C)NC[C@@H]1C : Gaussia minus Italica difference -3.949%

From PubChem BioAssay record AID1224904 (Broad Institute, 2016).